± gives the standard deviation of the averaged measurements. Values are relative to the signal before dosing, not to a vehicle control; the signal also falls without drug.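 Fibroblast labels name human fibroblasts: mostly primary ones from tissues such as uterus (C12385, HUF), lung (H6013), bone (Hs27A), adrenal (HADF) and skin (WS1), plus mammary HMF and breast cancer-associated Hs343T. The cancer cells are basal-like or mesenchymal-like triple-negative breast cancer lines. The paper calls a changed response a hit when it shifts by more than 3x the replicate standard deviation. The tissue of the other fibroblasts is not given here.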
Tested on: BT20
Assay: relative JC-1 red fluorescence (viability) vs pre-drug, coculture with fibroblast (fraction); higher = more viable cancer cells
Procedure: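 JC-1 labelled TNBC cells cocultured 1:1 (1,500 cells each) with CellTrace Violet stained primary or stromal fibroblasts in 384-well plates in FluoroBrite medium, treated with one of 42 anticancer drugs at 0.1, 1, 10 or 100 uM. JC-1 red fluorescence (mitochondrial integrity in cancer cells only) was read by plate reader every 8 h for 72 h. Values are normalised to each well's pre-drug value. The stock of one drug was tenfold lower, so its dose labels may be too high.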

CO[C@H]1C[C@@H]2CC[C@@H](C)[C@@](O)(O2)C(=O)C(=O)N2CCCC[C@H]2C(=O)O[C@H]([C@H](C)C[C@@H]2CC[C@@H](OCCO)[C@H](OC)C2)CC(=O)[C@H](C)/C=C(\C)[C@@H](O)[C@@H](OC)C(=O)[C@H](C)C[C@H](C)/C=C/C=C/C=C/1C [Everolimus]
relative JC-1 red fluorescence
Conditions | 8 h | 16 h | 24 h | 32 h | 40 h | 48 h | 56 h | 64 h | 72 h
0.1 µM, coculture fibroblast: C12385 | 0.8906 ± 0.002 | 0.76 ± 0.028 | 0.687 ± 0.028 | 0.623 ± 0.036 | 0.554 ± 0.027 | 0.52 ± 0.028 | 0.487 ± 0.024 | 0.463 ± 0.027 | 0.453 ± 0.017
0.1 µM, coculture fibroblast: H6013 | 0.897 ± 0.045 | 0.856 ± 0.029 | 0.8179 ± 0.0027 | 0.789 ± 0.021 | 0.753 ± 0.029 | 0.74 ± 0.025 | 0.749 ± 0.017 | 0.7412 ± 0.0048 | 0.7283 ± 0.003
0.1 µM, coculture fibroblast: H6019 | 0.865 ± 0.034 | 0.842 ± 0.037 | 0.845 ± 0.04 | 0.78 ± 0.013 | 0.737 ± 0.021 | 0.7231 ± 0.0047 | 0.6951 ± 0.0037 | 0.682 ± 0.021 | 0.671 ± 0.033
0.1 µM, coculture fibroblast: H6076 | 0.9801 ± 0.0043 | 0.8676 ± 0.0017 | 0.789 ± 0.015 | 0.765 ± 0.021 | 0.735 ± 0.026 | 0.715 ± 0.021 | 0.72 ± 0.03 | 0.721 ± 0.03 | 0.709 ± 0.023
0.1 µM, coculture fibroblast: H6231 | 0.908 ± 0.039 | 0.938 ± 0.046 | 0.821 ± 0.034 | 0.743 ± 0.0092 | 0.681 ± 0.014 | 0.6278 ± 0.004 | 0.5934 ± 0.00087 | 0.559 ± 0.007 | 0.534 ± 0.011
0.1 µM, coculture fibroblast: HADF | 0.977 ± 0.023 | 0.8586 ± 0.0046 | 0.821 ± 0.059 | 0.786 ± 0.036 | 0.757 ± 0.064 | 0.71 ± 0.069 | 0.702 ± 0.096 | 0.685 ± 0.1 | 0.655 ± 0.1
0.1 µM, coculture fibroblast: HCFa | 0.891 ± 0.015 | 0.815 ± 0.024 | 0.782 ± 0.036 | 0.731 ± 0.029 | 0.688 ± 0.036 | 0.662 ± 0.033 | 0.642 ± 0.031 | 0.615 ± 0.036 | 0.581 ± 0.03
0.1 µM, coculture fibroblast: HCPF | 0.77 ± 0.095 | 0.9197 ± 0.0088 | 0.85 ± 0.031 | 0.794 ± 0.032 | 0.764 ± 0.041 | 0.725 ± 0.04 | 0.691 ± 0.047 | 0.686 ± 0.061 | 0.651 ± 0.06
0.1 µM, coculture fibroblast: HHSteC | 0.911 ± 0.027 | 0.854 ± 0.038 | 0.851 ± 0.052 | 0.791 ± 0.087 | 0.754 ± 0.099 | 0.726 ± 0.1 | 0.71 ± 0.1 | 0.687 ± 0.11 | 0.667 ± 0.11
0.1 µM, coculture fibroblast: HMF | 0.9751 ± 0.0057 | 0.876 ± 0.018 | 0.776 ± 0.015 | 0.714 ± 0.014 | 0.663 ± 0.018 | 0.614 ± 0.02 | 0.584 ± 0.016 | 0.562 ± 0.017 | 0.544 ± 0.027
0.1 µM, coculture fibroblast: HPFa | 0.9545 ± 0.0025 | 0.839 ± 0.0096 | 0.815 ± 0.02 | 0.737 ± 0.017 | 0.698 ± 0.015 | 0.651 ± 0.017 | 0.62 ± 0.0095 | 0.5983 ± 0.0051 | 0.562 ± 0.011
0.1 µM, coculture fibroblast: HUF | 0.888 ± 0.031 | 0.798 ± 0.034 | 0.771 ± 0.045 | 0.694 ± 0.051 | 0.65 ± 0.052 | 0.609 ± 0.048 | 0.585 ± 0.05 | 0.574 ± 0.052 | 0.551 ± 0.05
0.1 µM, coculture fibroblast: Hs5 | 0.794 ± 0.11 | 0.9439 ± 0.0064 | 0.844 ± 0.03 | 0.788 ± 0.03 | 0.733 ± 0.039 | 0.698 ± 0.04 | 0.661 ± 0.042 | 0.627 ± 0.04 | 0.596 ± 0.036
0.1 µM, coculture fibroblast: Hs27A | 0.851 ± 0.031 | 0.827 ± 0.16 | 0.864 ± 0.052 | 0.856 ± 0.053 | 0.814 ± 0.046 | 0.785 ± 0.036 | 0.763 ± 0.023 | 0.734 ± 0.015 | 0.6906 ± 0.0038
0.1 µM, coculture fibroblast: Hs343T | 0.935 ± 0.013 | 0.904 ± 0.053 | 0.804 ± 0.036 | 0.759 ± 0.027 | 0.703 ± 0.036 | 0.66 ± 0.045 | 0.606 ± 0.024 | 0.585 ± 0.02 | 0.561 ± 0.021
0.1 µM, coculture fibroblast: WS1 | 0.8614 ± 0.0039 | 0.7752 ± 0.0063 | 0.7265 ± 0.0022 | 0.6564 ± 0.0056 | 0.592 ± 0.0066 | 0.554 ± 0.0059 | 0.521 ± 0.0058 | 0.49274 ± 0.00043 | 0.475 ± 0.0049
1 µM, coculture fibroblast: C12385 | 0.904 ± 0.024 | 0.859 ± 0.057 | 0.796 ± 0.089 | 0.77 ± 0.13 | 0.741 ± 0.15 | 0.72 ± 0.16 | 0.707 ± 0.17 | 0.693 ± 0.19 | 0.693 ± 0.2
1 µM, coculture fibroblast: H6013 | 0.99 ± 0.012 | 0.942 ± 0.033 | 0.936 ± 0.066 | 0.92 ± 0.091 | 0.905 ± 0.12 | 0.906 ± 0.13 | 0.839 ± 0.045 | 0.7791 ± 0.0056 | 0.81 ± 0.049
1 µM, coculture fibroblast: H6019 | 0.8512 ± 0.0023 | 0.8094 ± 0.0079 | 0.766 ± 0.01 | 0.716 ± 0.0089 | 0.674 ± 0.013 | 0.66 ± 0.015 | 0.633 ± 0.015 | 0.6159 ± 0.004 | 0.606 ± 0.0097
1 µM, coculture fibroblast: H6076 | 0.899 ± 0.13 | 0.884 ± 0.02 | 0.816 ± 0.016 | 0.789 ± 0.0094 | 0.761 ± 0.0042 | 0.7435 ± 0.001 | 0.7285 ± 0.0034 | 0.729 ± 0.0093 | 0.714 ± 0.0088
1 µM, coculture fibroblast: H6231 | 0.799 ± 0.1 | 0.9472 ± 0.0063 | 0.8498 ± 0.0063 | 0.7806 ± 0.0071 | 0.736 ± 0.02 | 0.692 ± 0.033 | 0.652 ± 0.024 | 0.634 ± 0.032 | 0.608 ± 0.019
1 µM, coculture fibroblast: HADF | 0.9876 ± 0.0035 | 0.934 ± 0.021 | 0.86 ± 0.052 | 0.836 ± 0.065 | 0.821 ± 0.083 | 0.8 ± 0.098 | 0.788 ± 0.11 | 0.779 ± 0.11 | 0.761 ± 0.13
1 µM, coculture fibroblast: HCFa | 0.9238 ± 0.0085 | 0.8564 ± 0.0018 | 0.861 ± 0.019 | 0.823 ± 0.02 | 0.784 ± 0.021 | 0.762 ± 0.014 | 0.731 ± 0.012 | 0.725 ± 0.015 | 0.6817 ± 0.0016
1 µM, coculture fibroblast: HCPF | 0.82 ± 0.076 | 0.9165 ± 0.0077 | 0.85 ± 0.011 | 0.807 ± 0.017 | 0.7655 ± 0.0043 | 0.73 ± 0.0088 | 0.6786 ± 0.0029 | 0.6576 ± 0.0052 | 0.6213 ± 0.0022
1 µM, coculture fibroblast: HHSteC | 0.937 ± 0.024 | 0.9 ± 0.089 | 0.873 ± 0.1 | 0.797 ± 0.097 | 0.738 ± 0.079 | 0.7 ± 0.061 | 0.656 ± 0.033 | 0.621 ± 0.02 | 0.591 ± 0.011
1 µM, coculture fibroblast: HMF | 0.887 ± 0.13 | 0.8938 ± 0.0082 | 0.802 ± 0.019 | 0.749 ± 0.019 | 0.694 ± 0.017 | 0.646 ± 0.027 | 0.61 ± 0.034 | 0.584 ± 0.032 | 0.564 ± 0.032
1 µM, coculture fibroblast: HPFa | 0.9464 ± 0.0082 | 0.874 ± 0.037 | 0.885 ± 0.068 | 0.82 ± 0.081 | 0.799 ± 0.094 | 0.771 ± 0.094 | 0.766 ± 0.1 | 0.75 ± 0.12 | 0.724 ± 0.12
1 µM, coculture fibroblast: HUF | 0.8948 ± 0.0059 | 0.7994 ± 0.0023 | 0.778 ± 0.024 | 0.705 ± 0.019 | 0.658 ± 0.024 | 0.615 ± 0.027 | 0.595 ± 0.035 | 0.575 ± 0.038 | 0.568 ± 0.04
1 µM, coculture fibroblast: Hs5 | 0.807 ± 0.066 | 0.899 ± 0.023 | 0.844 ± 0.019 | 0.804 ± 0.014 | 0.7647 ± 0.0064 | 0.7358 ± 0.0059 | 0.698 ± 0.0047 | 0.668 ± 0.0067 | 0.6409 ± 0.0042
1 µM, coculture fibroblast: Hs27A | 0.906 ± 0.011 | 0.86 ± 0.17 | 0.852 ± 0.057 | 0.861 ± 0.047 | 0.817 ± 0.066 | 0.806 ± 0.064 | 0.796 ± 0.07 | 0.784 ± 0.074 | 0.75 ± 0.071
1 µM, coculture fibroblast: Hs343T | 0.897 ± 0.1 | 0.892 ± 0.071 | 0.794 ± 0.065 | 0.735 ± 0.06 | 0.667 ± 0.057 | 0.624 ± 0.056 | 0.565 ± 0.047 | 0.542 ± 0.056 | 0.505 ± 0.059
1 µM, coculture fibroblast: WS1 | 0.884 ± 0.009 | 0.884 ± 0.022 | 0.874 ± 0.023 | 0.8168 ± 0.0072 | 0.7799 ± 0.0011 | 0.7778 ± 0.0077 | 0.7547 ± 0.007 | 0.7407 ± 0.0058 | 0.7462 ± 0.003
